Drawing on patent publication US20120093811A1, this text covers binding for eight molecules.

By UniProt entry, the sequences of proteins in these tests, tags left out. Where a name states a change or a piece, a line headed by the entry shows the natural chain unless it says otherwise.
UniProt O43915: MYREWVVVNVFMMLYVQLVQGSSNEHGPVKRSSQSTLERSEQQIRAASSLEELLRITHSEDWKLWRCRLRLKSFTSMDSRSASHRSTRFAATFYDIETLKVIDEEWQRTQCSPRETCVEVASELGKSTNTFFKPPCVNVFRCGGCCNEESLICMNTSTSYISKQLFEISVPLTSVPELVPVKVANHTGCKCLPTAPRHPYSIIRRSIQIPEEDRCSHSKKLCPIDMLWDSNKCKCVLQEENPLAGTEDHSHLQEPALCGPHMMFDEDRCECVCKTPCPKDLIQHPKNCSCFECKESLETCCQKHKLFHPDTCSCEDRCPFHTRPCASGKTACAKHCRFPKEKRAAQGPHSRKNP

For test [1], the target named is Source 1 VEGF-D, mature dimeric recombinant human VEGF-D (CSIRO) (human) (UniProt O43915). The test can be described thus: KD plotted against average IC50 of the VEGFR-2-Ba/F3 bioassay. The sheet names neither the KD method nor the VEGF-D form; paragraph 444 says 'KD of Source 1 VEGF-D' and Table 12 'Dimer KD'.
Test [2] shares this target. Kind of test: SPR (BIAcore), Protocols A and B, IgG on Source 1 VEGF-D dimer. Background: SPR reads the build-up and loss of mass on a sensor chip optically.
The target in test [3] is Source 2 VEGF-D, purified recombinant human VEGF-D monomer (R&D Systems, Catalog Number 622-VD/CF) (human) (UniProt O43915). Kind of test: SPR (BIAcore).

Substitutions are numbered along the chain they refer to. Results are given in words; binding and its absence hold for the method and conditions named. Some binding calls cover weakened binding; strength is not graded here.

B1: humanized IgG antibody derived from clone F61 (antibody, V domains shown)
VH: QVQLVQSGAEVKQPGASVKVSCKASGYTFTGYNMYWVRQAPGQGLEWMGYIDPYNGDTTYNQKFKGRVTMTTDTSTSTAYMKLRSLRSDDTAVYYCARTSYYGGMDYWGRGTLVTVAS
VL: DIVMTQTPLSSPVTLGQPASISCRSSQSLVHSNGNTYLHWLQQRPGQPPRLLIYKVSNRFSGVPDRFSGSGAGTDFTLKISRVEAEDVGVYYCSQSTHVPRTFGQGTKLEIKR
Regarding B1, the binding result in test [1] is “binds”.

B2: humanized IgG antibody derived from clone DI26 (antibody, V domains shown)
VH: B1 VH with E10K, V20A, N55S, K82E
VL: B1 VL
With B2, the binding entry in test [2] was “binds”.

B3: humanized IgG antibody derived from clone HH41 (antibody, V domains shown)
VH: B1 VH
VL: B1 VL with S32G
For the molecule B3, the binding entry in test [2] is “binds”.

B4: humanized IgG antibody derived from clone AW61 (antibody, V domains shown)
VH: B1 VH with V68A
VL: B1 VL
For the molecule B4, the binding result in test [1] was “binds”.

B5: humanized IgG antibody derived from clone HH69 (antibody, V domains shown)
VH: B1 VH with E10K, V20A, N55S, K82E
VL: B1 VL with S11G, Q105R
As to B5, in test [2], the binding entry is given as “binds”.

B6: Ig-1A, humanized IgG reformatted from scFv 1A (antibody, V domains shown)
VH: B1 VH with K82E
VL: B1 VL
Regarding B6, the binding result in test [3] is reported as “binds”.

B7: humanized IgG antibody derived from clone HW78 (antibody, V domains shown)
VH: B1 VH with S25R, S77G
VL: B1 VL
Take B7: in test [2], the binding entry is “binds”.

B8: humanized IgG antibody derived from clone HU75 (antibody, V domains shown)
VH: B1 VH
VL: B1 VL with S11G, Q105R
B8: the binding result in test [2] is given as “binds”.
